In doi:10.1101/2024.06.21.600134 (bioRxiv, 2024):
Results are given in words; binding and its absence hold for the method and conditions named. A result given as binding can be weak or reduced; the word gives no strength.

Molecular target: T1, Spigot (C. elegans) (UniProt Q4W5H0)
T1 sequence: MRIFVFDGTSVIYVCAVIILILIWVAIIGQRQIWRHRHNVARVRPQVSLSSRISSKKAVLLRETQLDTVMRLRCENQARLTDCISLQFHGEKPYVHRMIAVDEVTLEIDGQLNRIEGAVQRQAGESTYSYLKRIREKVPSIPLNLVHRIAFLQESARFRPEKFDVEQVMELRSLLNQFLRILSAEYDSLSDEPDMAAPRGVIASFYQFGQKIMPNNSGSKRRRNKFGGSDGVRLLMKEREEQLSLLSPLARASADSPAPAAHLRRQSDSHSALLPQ
Assay: cryo-EM structure

For Intake (C. elegans), the binding was “binds weakly”.
